Where a name gives a salt, the structure may show the parent alone. The list shows a part of the results. Most values lie within the scatter of the assay; repeated measurements hardly agree. Residues, ends and D or L forms follow the SMILES beside them.

The test system of this assay is Brugia pahangi adult female. The assay is described as follows: motility inhibition on day 3 relative to DMSO vehicle; higher = more active. Conditions: 10 µM; 3 days.
Take `CCCCCCc1ccc(O)cc1O` [hexylresorcinol]: the “motility inhibition on day 3” value was less than 0%. The figure for `CC1(C)NC(=O)N(c2ccc([N+](=O)[O-])c(C(F)(F)F)c2)C1=O` [nilutamide] is 2.33%; for `CCC1=C(C)CN(C(=O)NCCc2ccc(S(=O)(=O)NC(=O)N[C@H]3CC[C@H](C)CC3)cc2)C1=O` [glimepiride] it is 10.4%; for `O=C1CCc2cc(OCCCCc3nnnn3C3CCCCC3)ccc2N1` [cilostazol] it is 3.27%. Take `N#C[C@@H]1C[C@@H]2C[C@@H]2N1C(=O)[C@@H](N)C12CC3CC(CC(O)(C3)C1)C2` [saxagliptin]: the “motility inhibition on day 3” value was found to be 18%. Turning to `CCS(=O)(=O)CCn1c([N+](=O)[O-])cnc1C` [tinidazole], the “motility inhibition on day 3” value is 27%.

Take `CCCCOc1cc(C(=O)NCCN(CC)CC)c2ccccc2n1` [dibucaine hydrochloride]: the “motility inhibition on day 3” value turned out to be 2.81%.

With `CC[C@H]1OC(=O)[C@H](C)C(=O)[C@H](C)[C@@H](O[C@@H]2O[C@H](C)C[C@H](N(C)C)[C@H]2O)[C@](C)(OC)C[C@@H](C)C(=O)[C@H](C)[C@H]2N(CCCCn3cnc(-c4cccnc4)c3)C(=O)O[C@]12C` [telithromycin], the “motility inhibition on day 3” value was determined as 10.3%.

Consider `O=P(O)(O)C(Cl)(Cl)P(=O)(O)O` [Clodronic acid], for which the “motility inhibition on day 3” value turned out to be 10%.

On to `CCN1CC(CCN2CCOCC2)C(c2ccccc2)(c2ccccc2)C1=O` (centres undefined) [doxapram hydrochloride], for which the “motility inhibition on day 3” value was found to be 3.14%. As for `CC(=O)N[C@H]1[C@H]([C@H](O)[C@H](O)CO)OC(C(=O)O)=C[C@@H]1NC(=N)N` [Zanamivir], the figure is 23.4%; as for `Cc1nc2n(c(=O)c1CCN1CCC(c3noc4cc(F)ccc34)CC1)CCCC2` [Risperidone], 16.8%. On to `CNCCC(Oc1ccc(C(F)(F)F)cc1)c1ccccc1` (centres undefined) [Fluoxetine hydrochloride], for which the “motility inhibition on day 3” value came out at 18.5%. The figure for `CC1CCC(C(C)C)C(O)C1` (single isomer, unassigned; (-)) [(-)-menthol] is less than 0%; for `CC(=O)Nc1ccc(CC(=O)O)cc1` [actarit] it is 1.65%; for `OCc1cc(C(O)CNCCCCCCOCCCCc2ccccc2)ccc1O` (centres undefined) [Salmeterol] it is 0.574%. As for `CC(=O)OCC(=O)[C@@]12N=C(C)O[C@@H]1C[C@H]1[C@@H]3CCC4=CC(=O)C=C[C@]4(C)[C@H]3[C@@H](O)C[C@@]12C` [deflazacort], the figure is 17.5%; as for `CC(C)Nc1ncccn1` [isaxonine], less than 0%; as for `CC(C)(C)NC[C@H](O)c1ccc(O)c(CO)c1` [levalbuterol hydrochloride], 33.5%.

For `CCCCCCCCCCCCC[N+](C)(C)Cc1ccccc1` [benzalkonium chloride], the “motility inhibition on day 3” value was 97%.

For the molecule `CCn1cc(C(=O)O)c(=O)c2cnc(N3CCCC3)nc21` [piromidic acid], the “motility inhibition on day 3” value was less than 0%. Take `O=S(=O)(O)CCS` [mesna]: the “motility inhibition on day 3” value is 12.3%. The figure for `CC(=O)[C@H]1CC[C@H]2[C@@H]3C[C@H](C)C4=CC(=O)CC[C@]4(C)[C@H]3[C@@H](O)C[C@]12C` [medrysone] is 0.0336%; for `CCOC(=O)OC(C)OC1=C(C(=O)Nc2ccccn2)N(C)S(=O)(=O)c2ccccc21` (centres undefined) [ampiroxicam] it is less than 0%; for `CCCCNC(=O)NS(=O)(=O)c1ccc(C)cc1` [Tolbutamide] it is 12.7%.

`O=C(O)c1cc(-c2ccc(F)cc2F)ccc1O` [diflunisal]: the “motility inhibition on day 3” value is less than 0%. The figure for `CCCCCCCN(CC)CCCC(O)c1ccc(NS(C)(=O)=O)cc1` (centres undefined) [Ibutilide Fumarate] is less than 0%; for `COc1ccc(-c2cc(=O)c3c(O)cc(O[C@@H]4O[C@H](CO[C@@H]5O[C@@H](C)[C@H](O)[C@@H](O)[C@H]5O)[C@@H](O)[C@H](O)[C@H]4O)cc3o2)cc1O` [diosmin] it is 8.35%; for `NC(=O)NC(=O)Cc1ccccc1` [phenacemide] it is 25.7%. As for `COc1ccc(C(=O)c2ccc(C)cc2)c(O)c1` [mexeneone], the figure is 5.23%; as for `CC1(C)[C@H]2CC[C@]1(CS(=O)(=O)O)C(=O)C2=Cc1ccc(C=C2C(=O)[C@@]3(CS(=O)(=O)O)CC[C@@H]2C3(C)C)cc1` [ecamsule triethanolamine], 15.9%. The figure for `OC[C@@H](O)[C@@H](O[C@@H]1O[C@H](CO)[C@H](O)[C@H](O)[C@H]1O)[C@H](O)[C@@H](O)CO` [d-lactitol monohydrate] is less than 0%. Turning to `OC[C@@H](O)[C@@H](O[C@@H]1O[C@H](CO)[C@H](O)[C@H](O)[C@H]1O)[C@H](O)[C@@H](O)CO` [lacitol], the “motility inhibition on day 3” value is 42.3%.

For the molecule `c1ccc2[nH]c(-c3cscn3)nc2c1` [thiabendazole], the “motility inhibition on day 3” value is less than 0%. The figure for `CN1[C@@H](CC(=O)c2ccccc2)CCC[C@H]1C[C@H](O)c1ccccc1` [lobeline hydrochloride] is 2.36%; for `CN(C)[C@@H]1C(O)=C(C(N)=O)C(=O)[C@@]2(O)C(O)=C3C(=O)c4c(O)ccc(Cl)c4[C@@](C)(O)[C@H]3C[C@@H]12` [chlortetracycline] it is 1.14%. As for `O=C1OC2(c3ccc(O)cc3Oc3cc(O)ccc32)c2ccccc21` [fluorescein], the figure is less than 0%.

Turning to `CC(=O)OCC1=C(C(=O)O)N2C(=O)[C@@H](NC(=O)CSc3ccncc3)[C@H]2SC1` [cephapirin sodium], the “motility inhibition on day 3” value came to 6.04%. With `C[C@]12CC[C@@H]3c4ccc(O)cc4CC[C@H]3[C@@H]1CCC2=O` [estrone], the “motility inhibition on day 3” value was 24.2%.

Consider `CC(C)[C@H](NC(=O)[C@H](CC(=O)O)NC(=O)[C@H](CCCCN)NC(=O)[C@@H](N)CCCN=C(N)N)C(=O)N[C@@H](Cc1ccc(O)cc1)C(=O)O` [thymopentin] (H-RKDVY-OH), for which the “motility inhibition on day 3” value was less than 0%. The figure for `CCOC(=O)C1=C[C@]2(CC)CCCN3CCc4c(n1c1ccccc41)[C@@H]32` [vinpocetine] is 11%. As for `COc1ccccc1O` [guaiacol], the figure is 1.69%; as for `O=NN(CCCl)C(=O)NC1CCCCC1` [lomustine], 30.3%. The figure for `O=C(O)CCC(=O)Nc1ccc(S(=O)(=O)Nc2nccs2)cc1` [succinylsulfathiazole] is 42.9%; for `COc1cnc(NS(=O)(=O)c2ccc(N)cc2)nc1` [sulfameter] it is 10%; for `Cc1cccc(CN2CCN(C(c3ccccc3)c3ccc(Cl)cc3)CC2)c1` (centres undefined) [meclizine hydrochloride] it is 21.4%. With `CC(C)COC(=O)c1ccc(N)cc1` [isobutamben], the “motility inhibition on day 3” value is 8.61%. The figure for `Cc1cc(-n2c(=O)[nH]c(=O)n(C)c2=O)ccc1Oc1ccc(SC(F)(F)F)cc1` [toltrazuril] is 4.45%; for `Cc1ccccc1N1C(=O)c2cc(S(N)(=O)=O)c(Cl)cc2NC1C` (centres undefined) [metolazone] it is 6.8%. The figure for `OCCOCCN1CCN(C(c2ccccc2)c2ccc(Cl)cc2)CC1` (centres undefined) [hydroxyzine pamoate] is 42.8%. Consider `O=S(=O)(O)CCCS(=O)(=O)O` [eprodisate disodium], for which the “motility inhibition on day 3” value is less than 0%. The figure for `CC(=O)Nc1ccc(O)cc1` [acetaminophen] is 1.69%. As for `CC(=O)Oc1c(C)c(C)c2c(c1C)CCC(C)(CCCC(C)CCCC(C)CCCC(C)C)O2` (stereo not drawn) [alpha-tochopheryl acetate], the figure is 5.83%; as for `NCCCC(N)C(=O)O` (centres undefined) [ornithine aketoglutarate], less than 0%; as for `CCCCC(CC)CN=C(N)N=C(N)NCCCCCCNC(N)=NC(N)=NCC(CC)CCCC` (centres undefined) [alexidine hydrochloride], 92.8%. The figure for `COc1ccc2[nH]c([S+]([O-])Cc3ncc(C)c(OC)c3C)nc2c1` (centres undefined) [omeprazole] is 10.2%. In the case of `C[C@]12CC[C@@H]3c4ccc(O)cc4CC[C@H]3[C@@H]1C[C@H](O)[C@@H]2O` [epiestriol], the “motility inhibition on day 3” value was less than 0%. The figure for `Cn1nnnc1SCC1=C(C(=O)O)N2C(=O)[C@@H](NC(=O)[C@H](OC=O)c3ccccc3)[C@H]2SC1` [cefamandole nafate] is 19.9%; for `CO/N=C(\C(=O)N[C@@H]1C(=O)N2C(C(=O)O)=C(C[N+]3(C)CCCC3)CS[C@H]12)c1csc(N)n1` [cefepime hydrochloride] it is less than 0%; for `CCOC(=O)[C@H](CCc1ccccc1)N[C@@H](C)C(=O)N1CCC[C@H]1C(=O)O` [enalapril maleate] it is 6.87%.

With `CCc1cccc2c3c([nH]c12)C(CC)(CC(=O)O)OCC3` (centres undefined) [etodolac], the “motility inhibition on day 3” value stood at 5.82%. As for `Cc1noc(NS(=O)(=O)c2ccc(N)cc2)c1C` [sulfisoxazole], the figure is less than 0%. As for `CCCCC(=O)O[C@]1(C(=O)CO)CC[C@H]2[C@@H]3CCC4=CC(=O)CC[C@]4(C)[C@H]3[C@@H](O)C[C@@]21C` [hydrocortisone valerate], the figure is 53.3%; as for `C[C@]12CC[C@@H]3c4ccc(O)cc4CC[C@H]3[C@@H]1C[C@@H](O)[C@@H]2O` [estriol], 42.8%; as for `CC(Oc1c(Cl)cccc1Cl)C1=NCCN1` (centres undefined) [lofexidine  hydrochloride], 0.193%. The figure for `CC1=C(CC(=O)O)c2cc(F)ccc2/C1=C\c1ccc([S+](C)[O-])cc1` (centres undefined) [Sulindac] is less than 0%; for `Cn1c([N+](=O)[O-])cnc1COC(N)=O` [ronidazole] it is 4.78%.

Consider `NC(N)=O` [urea], for which the “motility inhibition on day 3” value was found to be 13.8%. As for `CN(C)[C@@H]1C(O)=C(C(N)=O)C(=O)[C@@]2(O)C(O)=C3C(=O)c4c(O)ccc(Cl)c4[C@@H](O)[C@H]3C[C@@H]12` [demeclocycline hydrochloride], the figure is 15.3%. As for `NC(C(=O)O)C(O)c1ccc(O)c(O)c1` (racemic) [H-DL-beta-(3,4-Dihydroxyphenyl)-DL-Ser-OH], the figure is less than 0%; as for `OC[C@H]1O[C@@H](O[C@@H]2[C@@H](CO)OC(O)(CO)[C@H]2O)[C@H](O)[C@@H](O)[C@H]1O` (mixture of isomers) [lactulose], 48.9%; as for `COc1ccc(-c2cc(C(F)F)nn2-c2ccc(S(N)(=O)=O)cc2)cc1F` [deracoxib], 1.48%. The figure for `CC(Oc1ccccc1)C(=O)N[C@@H]1C(=O)N2[C@@H]1SC(C)(C)[C@@H]2C(=O)O` (some centres undefined) [phenethicillin potassium] is 32%; for `CC[C@@H]1/C=C(\C)C[C@H](C)C[C@H](OC)[C@H]2O[C@@](O)(C(=O)C(=O)N3CCCC[C@H]3C(=O)O[C@H](/C(C)=C/[C@@H]3CC[C@H](Cl)[C@H](OC)C3)[C@H](C)[C@@H](O)CC1=O)[C@H](C)C[C@@H]2OC` [Pimecrolimus] it is 0.554%.
